Record: PubChem BioAssay AID652243 (Drosophila RNAi Screening Center, 2013)

Aim: 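Fly regulators of androgen-dependent reporter output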 (primary screen)
System: Drosophila S2R+ cells
Reagent: long dsRNA against Drosophila genes
Duration: 72 h (48 h, then 24 h hormone)
Conditions: synthetic androgen R1881 at 10 nM for 24 h
Measured: 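Per-well raw luminescence of the androgen-driven firefly reporter and of the Renilla control, two replicates each, without normalisation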
Scale: firefly reporter light: higher = more light from androgen-responsive reporter; Renilla control light: higher = more constitutive control signal (cell number, transfection)
Active means: 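Across duplicate plates, a knock-down whose log firefly/Renilla ratio shifted a set fold down or up from the GFP/LacZ control mean was a hit; the downward cut appears as both 1.5 and 3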
Meaning of the calls: active = hit: reporter lowered or raised; inactive = no hit
The screen tested about 24,000 reagents; below is an unselected part of those with a known target gene and a result. In the full data, 246 (1%) are marked active. 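Plates not normalised; calls are printed but the firefly/Renilla ratio behind them is not deposited; fold cut for lowering reported inconsistently.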 The raw values are shown without normalisation. Not stated in the record: the amount of reagent.

CG4610 (GeneID 37571) [DRSC04477]: firefly reporter light, replicate 1 = 3.45e5; firefly reporter light, replicate 2 = 3.67e5; Renilla control light, replicate 1 = 2.99e6; Renilla control light, replicate 2 = 2.50e6; call = inactive
CG4610 (GeneID 37571) [DRSC22397]: firefly reporter light, replicate 1 = 3.81e5; firefly reporter light, replicate 2 = 7.94e5; Renilla control light, replicate 1 = 8.81e5; Renilla control light, replicate 2 = 2.28e6; call = inactive
CG4610 (GeneID 37571) [DRSC29602]: firefly reporter light, replicate 1 = 3.68e5; firefly reporter light, replicate 2 = 4.30e5; Renilla control light, replicate 1 = 1.08e6; Renilla control light, replicate 2 = 1.08e6; call = inactive
mth (GeneID 38058) [DRSC08725]: firefly reporter light, replicate 1 = 1.53e6; firefly reporter light, replicate 2 = 1.14e6; Renilla control light, replicate 1 = 2.89e6; Renilla control light, replicate 2 = 2.50e6; call = inactive
mth (GeneID 38058) [DRSC39165]: firefly reporter light, replicate 1 = 9.07e5; firefly reporter light, replicate 2 = 9.41e5; Renilla control light, replicate 1 = 2.22e6; Renilla control light, replicate 2 = 1.63e6; call = inactive
CG8888 (GeneID 36293) [DRSC07294]: firefly reporter light, replicate 1 = 8.27e5; firefly reporter light, replicate 2 = 7.97e5; Renilla control light, replicate 1 = 1.26e6; Renilla control light, replicate 2 = 9.42e5; call = inactive
CG8888 (GeneID 36293) [DRSC07295]: firefly reporter light, replicate 1 = 7.05e5; firefly reporter light, replicate 2 = 4.38e5; Renilla control light, replicate 1 = 2.04e6; Renilla control light, replicate 2 = 2.46e6; call = inactive
Gadd45 (GeneID 35646) [DRSC06033]: firefly reporter light, replicate 1 = 3.12e5; firefly reporter light, replicate 2 = 2.21e5; Renilla control light, replicate 1 = 1.66e6; Renilla control light, replicate 2 = 1.61e6; call = inactive

Laid out differently: 3 of the entries above.
| Gene | amplicon | firefly reporter light, replicate 1 | firefly reporter light, replicate 2 | Renilla control light, replicate 1 | Renilla control light, replicate 2 | call |
| --- | --- | --- | --- | --- | --- | --- |
| CG4610 (GeneID 37571) | DRSC29602 | 3.68e5 | 4.30e5 | 1.08e6 | 1.08e6 | inactive |
| mth (GeneID 38058) | DRSC08725 | 1.53e6 | 1.14e6 | 2.89e6 | 2.50e6 | inactive |
| mth (GeneID 38058) | DRSC39165 | 9.07e5 | 9.41e5 | 2.22e6 | 1.63e6 | inactive |

More reagents:
Ir94b (GeneID 318728) [DRSC21439]: firefly reporter light, replicate 1 = 8.53e5; firefly reporter light, replicate 2 = 9.53e5; Renilla control light, replicate 1 = 1.59e6; Renilla control light, replicate 2 = 1.40e6; call = inactive
Tengl3 (GeneID 33404) [DRSC22288]: firefly reporter light, replicate 1 = 1.01e6; firefly reporter light, replicate 2 = 9.66e5; Renilla control light, replicate 1 = 1.21e6; Renilla control light, replicate 2 = 1.02e6; call = inactive
Tengl3 (GeneID 33404) [DRSC27773]: firefly reporter light, replicate 1 = 2.50e5; firefly reporter light, replicate 2 = 1.54e5; Renilla control light, replicate 1 = 2.65e5; Renilla control light, replicate 2 = 6.28e5; call = inactive
CG5250 (GeneID 42308) [DRSC15752]: firefly reporter light, replicate 1 = 1.68e5; firefly reporter light, replicate 2 = 1.98e5; Renilla control light, replicate 1 = 3.00e6; Renilla control light, replicate 2 = 2.87e6; call = inactive
CG42258 (GeneID 32196) [DRSC19741]: firefly reporter light, replicate 1 = 5.64e5; firefly reporter light, replicate 2 = 5.79e5; Renilla control light, replicate 1 = 2.98e6; Renilla control light, replicate 2 = 3.14e6; call = inactive
CG42258 (GeneID 32196) [DRSC23161]: firefly reporter light, replicate 1 = 5.99e5; firefly reporter light, replicate 2 = 7.71e5; Renilla control light, replicate 1 = 1.11e6; Renilla control light, replicate 2 = 1.83e6; call = inactive
CG42258 (GeneID 32196) [DRSC27710]: firefly reporter light, replicate 1 = 4.99e5; firefly reporter light, replicate 2 = 4.80e5; Renilla control light, replicate 1 = 7.43e5; Renilla control light, replicate 2 = 9.28e5; call = inactive
CG42258 (GeneID 32196) [DRSC28451]: firefly reporter light, replicate 1 = 4.11e5; firefly reporter light, replicate 2 = 4.77e5; Renilla control light, replicate 1 = 5.28e5; Renilla control light, replicate 2 = 1.16e6; call = inactive
Cyp49a1 (GeneID 36105) [DRSC06737]: firefly reporter light, replicate 1 = 1.77e5; firefly reporter light, replicate 2 = 1.84e5; Renilla control light, replicate 1 = 1.70e6; Renilla control light, replicate 2 = 1.28e6; call = inactive
Cyp49a1 (GeneID 36105) [DRSC07367]: firefly reporter light, replicate 1 = 3.99e5; firefly reporter light, replicate 2 = 3.14e5; Renilla control light, replicate 1 = 2.56e6; Renilla control light, replicate 2 = 2.08e6; call = inactive
sug (GeneID 36424) [DRSC06855]: firefly reporter light, replicate 1 = 9.40e5; firefly reporter light, replicate 2 = 8.41e5; Renilla control light, replicate 1 = 1.46e6; Renilla control light, replicate 2 = 1.58e6; call = inactive
sug (GeneID 36424) [DRSC29599]: firefly reporter light, replicate 1 = 3.79e5; firefly reporter light, replicate 2 = 5.56e5; Renilla control light, replicate 1 = 8.45e5; Renilla control light, replicate 2 = 8.45e5; call = inactive
thoc5 (GeneID 37810) [DRSC04327]: firefly reporter light, replicate 1 = 6.95e5; firefly reporter light, replicate 2 = 7.33e5; Renilla control light, replicate 1 = 1.26e6; Renilla control light, replicate 2 = 1.40e6; call = inactive
